## Percent effect of library compounds

Data taken from ChEMBL document CHEMBL3988442, “University of Dundee, Small-Polar-MMV Screening Library” (2021).

Results are given as percent effect. The record does not define 0% and 100%; most values in the screen are far below 50% and negative numbers occur (in some assays of this library far below -100). The compounds are a random part of those screened.

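Assay of Toxoplasma gondii numbers, read through their beta-galactosidase reporter with a colour substrate. Compounds at 50 µM. The record gives no direction; the compounds picked for IC50 retests had high values, so higher reads as fewer parasites. About 18,000 compounds were tested under these conditions; 0.94% (about 170) showed 50% or more at least once.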

compound	percent effect
CCn1cc(Cl)c(C(=O)NC2=NCCS2)n1	-14.61%
CCCOC1CCCNCC1 (configuration not stated)	0.9001%
N#Cc1cccc(C(=O)NCCCn2cccn2)c1	3.146%
Cn1nc(C(N)=O)cc1C(F)(F)F	-7.941%
Cc1occc1CN	-3.977%
CCC(CC)C(=O)N1CCC(=O)Nc2ccccc21	-3.403%
CC(C)(C)C(O)CNC(=O)Nc1nncs1 (configuration not stated)	-6.498%
Cc1cncc(CCN)n1	-25.23%
CN(C)C(=O)Cn1ncc2ccccc21	15.08%
CCOc1ccc(CC(=O)N(C)[C@H]2COC[C@@H]2O)cc1	-5.5%
CCn1ccc(CN2CC3(CCNCC3)OC2=O)n1	-13.06%
NC(=O)CCN1CCC(CNc2ccccn2)C1 (configuration not stated)	1.458%
NCc1ccc(-n2cc(Cl)cn2)cc1	-34.41%
O=C(CN1CCOCC1)c1nccs1	-5.734%
CCCNC(=O)C1=NN(C)C(=O)CC1	-13.89%
Cc1c(Cl)cccc1C(=O)N(C)[C@H](C)C(N)=O	-0.4673%
CO[C@@H]1C[C@@H](CO)N(C(=O)OC(C)(C)C)C1	33.62%
CCC(CC)(CC)NC(=O)NCc1nccn1C	-11.13%
Cc1cn(CC(=O)NCC[S+](C)[O-])c2ccccc12 (configuration not stated)	27.17%
NC(=O)c1cc(F)ccc1N1CCNCC1	2.231%
CSc1cccc(NC(=O)N2CCC(O)(CO)C2)c1 (configuration not stated)	12.89%
CC[C@@H](O)CN1CCN(C(C)COC)CC1 (some centres not stated)	2.101%
O=C(NCCCNCc1cccnc1)c1ccc(Cl)s1	3.914%
COc1ccc(CNCCCSc2nnnn2C)cc1	3.306%
NC(=O)NC(=O)CCNS(=O)(=O)c1ccccc1Cl	4.497%
Cc1ccc2c(c1)CC(=O)N2C	-8.027%
Cc1occc1C(=O)N1CCCC2(CC1)CNC(=O)O2 (configuration not stated)	1.515%
CN(C)C(=O)CNc1ccnc2ccc(Cl)cc12	-0.7852%
CCc1noc(COC2CNC2)n1	-4.202%
CN1CC(NCc2ccc(C#N)cc2)CC1=O (configuration not stated)	22.21%
NC(=O)COc1ccc(CN2CCCC2)cc1Cl	-10.48%
CN(CCC(N)=O)Cc1ccc(Cl)s1	-3.537%
Cc1nnc(C(C)N2CCn3c(nc(C)c3C)C2)o1 (configuration not stated)	-3.821%
CCN1CCN(CC(C)CNc2ccncc2Cl)CC1 (configuration not stated)	0.302%
CS(=O)(=O)c1cccc(CN)c1	-8.503%
NC1CCN(S(=O)(=O)c2ccccc2)CC1	1.572%
Cc1cc(C(=O)NCC2(O)CCCNC2)cc(=O)[nH]1 (configuration not stated)	4.982%
Cc1cc(F)c(S(=O)(=O)NCCCN)cc1F	0.1254%
O=S(=O)(NCc1ccncc1)c1cccc2nonc12	-3.085%
Cn1nccc1C1(O)CCOCC1	10.36%
CCc1ccsc1C(=O)NCCC(=O)N(C)C	6.834%
O=C1CCc2cc(C(=O)N3CCCC3)ccc2N1	0.8767%
Cc1ccoc1C(=O)N(C)Cc1snnc1C	8.641%
COc1ccccc1NC(=O)c1n[nH]cc1Cl	-8.464%
Ic1cnn(CCN2CCSCC2)c1	-27.54%
O=C(N1CCCC(O)C1)C1(O)Cc2ccccc2C1 (configuration not stated)	34.99%
O=C(CSc1cnn[nH]1)N1CCc2sccc2C1	-15.11%
O=C(COC1CCCC1)NC1CCc2nccn2C1 (configuration not stated)	-9.599%
CCC(NC(=O)c1ccncc1I)C(=O)OC (configuration not stated)	-5.521%
O=C(CC1COCCN1)NCc1ccc2c(c1)OCO2 (configuration not stated)	8.528%
NC(=O)C1CCN(C2=NS(=O)(=O)c3ccccc32)CC1	-16.01%
CC1CCCCN1S(=O)(=O)NCc1ccccn1 (configuration not stated)	11.51%
Cc1nnnn1CCC(=O)NCc1csc(C(C)C)n1	-2.514%
CN(C)C(=O)OC(C)(C)C	5.545%
NCc1ccnc(C(N)=O)c1	-4.274%
Cc1ccccc1NCCC(=O)NC1CCS(=O)(=O)C1 (configuration not stated)	-1.083%
Cn1nc(C(=O)N2CCCC2c2ccco2)ccc1=O (configuration not stated)	12.05%
Cc1cccc(S(=O)(=O)NC2CCNC2)c1C#N (configuration not stated)	4.055%
CCNCc1cccnc1N(C)CCc1ccccn1	-12.85%
COc1cccn(CC(=O)N(C)C2CCSCC2)c1=O	-3.261%

Repeated from the top, 4 entries:

- CCn1cc(Cl)c(C(=O)NC2=NCCS2)n1 | -14.61%
- CCCOC1CCCNCC1 (configuration not stated) | 0.9001%
- N#Cc1cccc(C(=O)NCCCn2cccn2)c1 | 3.146%
- Cn1nc(C(N)=O)cc1C(F)(F)F | -7.941%